These are yes or no findings as the source states them, for the method shown. Binding seen in cells or lysates may run through a third protein. Some binding calls cover weakened binding; strength is not graded here.
Molecular target: endogenous CD44s (CD44 standard isoform) (human (endogenous in CRC cells)) (UniProt P16070)
Experiment: co-IP; endogenous proteins from cells in the presence or absence of 0.152 μM TFF3; co-IP kit (Pierce), antibody coupled to resin, lysate at 4 °C overnight; IgG as control antibody

The chains behind the UniProt entries cited, without tags or fusion partners. Where a name states a change or a piece, a line headed by the entry shows the natural chain unless it says otherwise. A line that says so, or that is headed by a name, gives the form on record, which may keep a tag or linker.
endogenous CD44s (CD44 standard isoform) (human (endogenous in CRC cells)) (P16070, form named): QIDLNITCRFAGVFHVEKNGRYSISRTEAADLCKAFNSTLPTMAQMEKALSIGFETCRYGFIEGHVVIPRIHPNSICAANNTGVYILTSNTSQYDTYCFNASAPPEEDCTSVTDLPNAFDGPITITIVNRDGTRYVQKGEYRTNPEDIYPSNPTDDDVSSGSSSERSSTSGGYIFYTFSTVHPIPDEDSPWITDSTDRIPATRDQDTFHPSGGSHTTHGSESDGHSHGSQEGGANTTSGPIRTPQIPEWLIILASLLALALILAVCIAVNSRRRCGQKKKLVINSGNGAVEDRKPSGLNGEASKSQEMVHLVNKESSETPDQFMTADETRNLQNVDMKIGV
UniProt P40763: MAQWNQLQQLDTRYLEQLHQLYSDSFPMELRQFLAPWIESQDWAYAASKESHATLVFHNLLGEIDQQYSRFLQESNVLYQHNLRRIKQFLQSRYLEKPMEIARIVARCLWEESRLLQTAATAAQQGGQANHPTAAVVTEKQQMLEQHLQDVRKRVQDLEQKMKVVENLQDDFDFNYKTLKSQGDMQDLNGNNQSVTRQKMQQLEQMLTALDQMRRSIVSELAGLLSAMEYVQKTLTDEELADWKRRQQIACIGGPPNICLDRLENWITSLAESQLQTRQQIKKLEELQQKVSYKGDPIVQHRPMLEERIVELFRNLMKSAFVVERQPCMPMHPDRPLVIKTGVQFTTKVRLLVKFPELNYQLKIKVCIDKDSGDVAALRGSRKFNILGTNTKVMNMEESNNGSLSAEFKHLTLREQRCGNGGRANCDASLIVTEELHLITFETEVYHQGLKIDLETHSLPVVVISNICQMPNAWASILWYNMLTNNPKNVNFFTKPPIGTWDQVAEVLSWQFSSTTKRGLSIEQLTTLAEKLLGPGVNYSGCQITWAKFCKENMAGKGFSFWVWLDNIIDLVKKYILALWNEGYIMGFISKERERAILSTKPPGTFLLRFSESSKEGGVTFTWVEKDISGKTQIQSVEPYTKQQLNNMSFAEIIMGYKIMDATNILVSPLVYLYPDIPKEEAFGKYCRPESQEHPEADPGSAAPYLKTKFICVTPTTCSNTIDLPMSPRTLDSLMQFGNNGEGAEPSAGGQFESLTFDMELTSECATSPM

Question: With “signal transducer and activator of transcription 3 (STAT3), endogenous (from UniProt P40763 1-770)” as the substance, how does the binding read?
Answer: binds
